# Test results: US20250268938A1, “SMALL MOLECULE-REGULATED CELL SIGNALING EXPRESSION SYSTEM” (Outpace Bio, Inc., priority 2021, published 2025)
# Some entries share one result that the patent states for a list of compounds.
# Tested on: Jurkat cells
# Assay: Kill switch percent killing in Jurkat cells (flow cytometry)
# Assay type: cell-based
# Conditions: in response to rimiducid (iCasp9) or rapamycin (rapaCasp9); 24 hours; top about 10% GFP-expressing Jurkat cells
# Protocol: Kill switch-positive cells (le5) were incubated for 24-48 hours with inducer drug before staining and analysis for death. Conditions were normalized to contain about 50% transduction positive (+) cells by adding untransduced Jurkat or primary T cells in order to get accurate statistics on death.
# Flow cytometry was performed on a Ze5 cytometer (Biorad). To determine expression of markers, between 1×10^5-2×10^5 total cells were transferred to a U-bottom 96 well culture dish (Corning). Cells were washed twice with Cell Staining Buffer (BioLegend), then stained with Zombie Violet (1:1000, BioLegend) and ROR1-FC for ROR1-specific CAR constructs (20 min at room temperature). […] After staining, cells were washed once with Annexin V Binding Buffer, resuspended in AnneinV Binding Buffer and immediately analyzed.
# Flow cytometry data was analyzed using FlowJo 10 (Tree Star). Percent killing was calculated by gating on live cells, then calculating 100*((percent GFP positive DMSO condition)−(percent GFP positive drug condition))/(percent GFP positive DMSO condition). […]
# To evaluate the kill switch designs of FIG. 8A, constructs were expressed in Jurkat cells, treated with 500 nM danoprevir (DNCR2-casp-9) or 500 nM grazoprevir (GNCR1-casp-9) and cell death measured by percent killing as described herein above. […]
substance,measurement,value
rapaCasp9: caspase-9 with inducible heterodimer FKBP/rapamycin/FRB,percent killing of high-expressing population,80-100%
